Measurements as given in article PMC6268524.
These are yes or no findings as the source states them, for the method shown. Binding seen in cells or lysates may run through a third protein. For some of these results: Binding calls can cover weak binding; strength is not graded here. For some of these results: Where a sequence is shown, tags or fusion partners need not be part of it.

By UniProt entry, the sequences of proteins in these tests, tags left out. Where a name states a change or a piece, a line headed by the entry shows the natural chain unless it says otherwise. Residues count along the entry.
UniProt Q13490: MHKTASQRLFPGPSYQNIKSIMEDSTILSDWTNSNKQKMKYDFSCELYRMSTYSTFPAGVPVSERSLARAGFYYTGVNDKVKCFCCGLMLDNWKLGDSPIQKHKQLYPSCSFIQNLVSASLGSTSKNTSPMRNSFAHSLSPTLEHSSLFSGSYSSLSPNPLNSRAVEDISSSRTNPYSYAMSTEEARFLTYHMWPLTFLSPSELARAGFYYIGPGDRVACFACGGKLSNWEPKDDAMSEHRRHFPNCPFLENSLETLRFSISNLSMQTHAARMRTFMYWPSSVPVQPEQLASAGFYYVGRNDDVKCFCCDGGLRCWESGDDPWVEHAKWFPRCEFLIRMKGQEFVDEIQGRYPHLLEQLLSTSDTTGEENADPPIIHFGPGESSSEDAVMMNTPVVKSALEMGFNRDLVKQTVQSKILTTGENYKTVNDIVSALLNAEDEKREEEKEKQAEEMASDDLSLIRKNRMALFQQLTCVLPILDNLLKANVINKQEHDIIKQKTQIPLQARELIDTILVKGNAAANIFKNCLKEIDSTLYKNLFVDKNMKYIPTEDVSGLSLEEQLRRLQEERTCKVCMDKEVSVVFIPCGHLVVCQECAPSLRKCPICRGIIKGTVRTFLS
UniProt Q8NBP7: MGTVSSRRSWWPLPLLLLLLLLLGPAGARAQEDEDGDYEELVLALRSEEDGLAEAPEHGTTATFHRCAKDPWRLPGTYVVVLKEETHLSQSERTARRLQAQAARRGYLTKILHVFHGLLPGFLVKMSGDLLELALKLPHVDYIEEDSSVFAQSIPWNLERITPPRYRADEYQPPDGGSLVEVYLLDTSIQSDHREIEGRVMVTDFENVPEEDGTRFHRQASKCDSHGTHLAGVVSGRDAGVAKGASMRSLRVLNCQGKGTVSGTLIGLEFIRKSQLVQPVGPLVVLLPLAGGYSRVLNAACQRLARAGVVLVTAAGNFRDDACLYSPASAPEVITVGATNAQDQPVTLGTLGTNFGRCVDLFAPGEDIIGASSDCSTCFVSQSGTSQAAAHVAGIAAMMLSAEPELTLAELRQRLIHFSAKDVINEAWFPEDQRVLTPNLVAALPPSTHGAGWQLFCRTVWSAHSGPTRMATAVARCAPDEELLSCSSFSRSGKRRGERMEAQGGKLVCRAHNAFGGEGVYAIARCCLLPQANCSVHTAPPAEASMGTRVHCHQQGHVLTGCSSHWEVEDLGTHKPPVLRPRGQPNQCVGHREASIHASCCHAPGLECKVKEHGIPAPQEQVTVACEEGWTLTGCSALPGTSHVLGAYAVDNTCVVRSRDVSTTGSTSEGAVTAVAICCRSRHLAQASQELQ
UniProt Q9NYU2, residues 43-1555: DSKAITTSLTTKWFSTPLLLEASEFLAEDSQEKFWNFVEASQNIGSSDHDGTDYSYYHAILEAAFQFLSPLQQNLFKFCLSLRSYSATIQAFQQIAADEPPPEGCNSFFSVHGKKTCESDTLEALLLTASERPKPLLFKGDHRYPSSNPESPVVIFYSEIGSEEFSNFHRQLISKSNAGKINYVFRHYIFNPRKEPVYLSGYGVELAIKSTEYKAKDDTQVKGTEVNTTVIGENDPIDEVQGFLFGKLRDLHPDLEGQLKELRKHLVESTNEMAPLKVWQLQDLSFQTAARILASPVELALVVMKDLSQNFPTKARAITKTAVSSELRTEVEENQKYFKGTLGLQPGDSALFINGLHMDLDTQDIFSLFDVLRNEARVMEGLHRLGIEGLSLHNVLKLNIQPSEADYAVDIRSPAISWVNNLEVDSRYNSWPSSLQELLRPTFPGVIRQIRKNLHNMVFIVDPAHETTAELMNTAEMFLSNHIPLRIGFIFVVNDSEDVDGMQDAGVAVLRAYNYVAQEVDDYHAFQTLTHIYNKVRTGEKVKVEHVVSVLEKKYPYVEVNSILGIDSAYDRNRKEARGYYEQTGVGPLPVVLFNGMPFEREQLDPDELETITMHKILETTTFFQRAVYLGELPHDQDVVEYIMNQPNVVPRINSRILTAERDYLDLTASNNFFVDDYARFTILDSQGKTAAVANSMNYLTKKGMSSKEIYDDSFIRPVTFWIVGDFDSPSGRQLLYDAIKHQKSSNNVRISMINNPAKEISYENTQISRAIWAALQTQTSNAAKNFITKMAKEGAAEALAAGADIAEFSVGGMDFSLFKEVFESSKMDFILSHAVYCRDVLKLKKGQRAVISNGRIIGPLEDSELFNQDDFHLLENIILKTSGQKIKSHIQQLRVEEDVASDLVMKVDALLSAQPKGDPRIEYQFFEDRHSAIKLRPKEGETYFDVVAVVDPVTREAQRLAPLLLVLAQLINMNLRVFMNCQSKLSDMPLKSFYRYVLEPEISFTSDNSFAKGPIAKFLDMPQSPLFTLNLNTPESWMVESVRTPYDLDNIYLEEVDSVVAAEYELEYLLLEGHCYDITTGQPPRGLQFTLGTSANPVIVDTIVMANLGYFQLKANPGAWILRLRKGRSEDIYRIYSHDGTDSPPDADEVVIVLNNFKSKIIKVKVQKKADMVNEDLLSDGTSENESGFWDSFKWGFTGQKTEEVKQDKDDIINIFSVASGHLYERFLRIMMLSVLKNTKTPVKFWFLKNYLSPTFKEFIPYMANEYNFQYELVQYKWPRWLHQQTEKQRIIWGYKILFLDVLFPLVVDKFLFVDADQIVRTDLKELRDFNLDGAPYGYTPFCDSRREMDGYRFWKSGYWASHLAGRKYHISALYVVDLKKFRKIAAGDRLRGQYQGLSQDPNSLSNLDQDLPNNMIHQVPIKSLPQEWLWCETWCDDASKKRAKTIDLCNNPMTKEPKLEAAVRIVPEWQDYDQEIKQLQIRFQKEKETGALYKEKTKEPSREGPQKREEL

T1: myc-tagged TRAF2 (UniProt Q12933)
T1 sequence: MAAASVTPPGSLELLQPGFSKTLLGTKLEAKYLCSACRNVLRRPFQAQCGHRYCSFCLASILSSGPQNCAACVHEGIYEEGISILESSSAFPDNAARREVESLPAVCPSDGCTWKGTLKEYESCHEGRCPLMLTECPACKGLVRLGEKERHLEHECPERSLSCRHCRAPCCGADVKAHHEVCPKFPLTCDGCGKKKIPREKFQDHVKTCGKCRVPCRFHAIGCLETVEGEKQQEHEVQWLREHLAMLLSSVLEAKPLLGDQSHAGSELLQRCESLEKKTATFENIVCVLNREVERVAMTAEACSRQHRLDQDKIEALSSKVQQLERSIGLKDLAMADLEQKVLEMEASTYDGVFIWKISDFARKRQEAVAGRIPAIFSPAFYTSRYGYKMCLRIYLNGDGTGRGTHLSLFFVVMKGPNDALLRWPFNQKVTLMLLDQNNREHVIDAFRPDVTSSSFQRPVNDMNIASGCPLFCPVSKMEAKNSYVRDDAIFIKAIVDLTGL


Columns and labels:
[1] = target: T1, myc-tagged TRAF2; experiment: co-IP; FLAG-tagged wild-type PCSK9 co-transfected with a myc-tagged partner into T-Rex-293 cells; after 24 h lysates immunoprecipitated with anti-myc antibody, blotted with anti-PCSK9
[2] = target: myc-tagged c-IAP1 (UniProt Q13490); experiment: as above
[3] = target: FLAG-tagged wild-type PCSK9 (proprotein convertase subtilisin/kexin type 9) (human) (UniProt Q8NBP7); experiment: co-IP; anti-FLAG IP from cellular extracts of T-Rex-293 lines stably overexpressing FLAG-tagged PCSK9 (wild type or ADH mutants), Western blots for endogenous partners with commercial antibodies

| binding [1] | binding [2] | binding [3] | Molecule |
| --- | --- | --- | --- |
| no binding | binds |  | FLAG-tagged wild-type PCSK9 (proprotein convertase subtilisin/kexin type 9) (from UniProt Q8NBP7) |
|  |  | binds | UDP-glucose glycoprotein glucosyltransferase 1 (from UniProt Q9NYU2 43-1555) |
|  |  | binds | protein disulfide isomerase family A, member 4 (protein, UniProt P13667 21-645) VAGAEGPDEDSSNRENAIEDEEEEEEEDDDEEEDDLEVKEENGVLVLNDANFDNFVADKDTVLLEFYAPWCGHCKQFAPEYEKIANILKDKDPPIPVAKIDATSASVLASRFDVSGYPTIKILKKGQAVDYEGSRTQEEIVAKVREVSQPDWTPPPEVTLVLTKENFDEVVNDADIILVEFYAPWCGHCKKLAPEYEKAAKELSKRSPPIPLAKVDATAETDLAKRFDVSGYPTLKIFRKGRPYDYNGPREKYGIVDYMIEQSGPPSKEILTLKQVQEFLKDGDDVIIIGVFKGESDPAYQQYQDAANNLREDYKFHHTFSTEIAKFLKVSQGQLVVMQPEKFQSKYEPRSHMMDVQGSTQDSAIKDFVLKYALPLVGHRKVSNDAKRYTRRPLVVVYYSVDFSFDYRAATQFWRSKVLEVAKDFPEYTFAIADEEDYAGEVKDLGLSESGEDVNAAILDESGKKFAMEPEEFDSDTLREFVTAFKKGKLKPVIKSQPVPKNNKGPVKVVVGKTFDSIVMDPKKDVLIEFYAPWCGHCKQLEPVYNSLAKKYKGQKGLVIAKMDATANDVPSDRYKVEGFPTIYFAPSGDKKNPVKFEGGDRDLEHLSKFIEEHATKLSRTKEEL |
